Reference: article PMC5973557
These are yes or no findings as the source states them, for the method shown. Tags and fused reporters may be left off the sequences shown.

molecular target: T1, Dms1, Gal4 DNA-binding domain fusion from pGBT9(dms1) (S. pombe) (UniProt O74466); test: two-hybrid; Gal4 activation domain (AD) and Gal4 DNA-binding domain (BD) fusions tested in yeast (S3 Fig A)
T1 sequence: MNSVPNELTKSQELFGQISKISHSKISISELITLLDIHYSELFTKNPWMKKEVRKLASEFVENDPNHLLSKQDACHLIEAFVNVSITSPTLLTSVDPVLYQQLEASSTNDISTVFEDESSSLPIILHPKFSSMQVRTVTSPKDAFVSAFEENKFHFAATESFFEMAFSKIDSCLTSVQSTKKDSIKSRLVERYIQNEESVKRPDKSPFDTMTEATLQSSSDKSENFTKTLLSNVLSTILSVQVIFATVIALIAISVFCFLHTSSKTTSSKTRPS

Substance	binding
Spo15 750aaΔ, Gal4 activation domain fusion from pGAD424(spo15 750aaΔ) (S. pombe) (domain or fragment)	no binding
Spo15 1000aaΔ, Gal4 activation domain fusion from pGAD424(spo15 1000aaΔ) (S. pombe) (domain or fragment)	no binding
Spo15 1250aaΔ, Gal4 activation domain fusion from pGAD424(spo15 1250aaΔ) (S. pombe) (domain or fragment)	no binding
Spo15 500aaΔ, Gal4 activation domain fusion from pGAD424(spo15 500aaΔ) (S. pombe) (domain or fragment)	no binding
